Measured values: publication PMC5238962
Results are given in words; binding and its absence hold for the method and conditions named. Binding seen in cells or lysates may run through a third protein. Some binding calls cover weakened binding; strength is not graded here.

Sequences of proteins named here, by UniProt entry; tags and fusion partners are left off.
UniProt P47813: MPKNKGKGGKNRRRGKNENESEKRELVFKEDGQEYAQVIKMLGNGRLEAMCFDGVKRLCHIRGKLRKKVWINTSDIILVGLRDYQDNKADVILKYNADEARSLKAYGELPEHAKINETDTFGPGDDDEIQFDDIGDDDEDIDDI
UniProt P05198: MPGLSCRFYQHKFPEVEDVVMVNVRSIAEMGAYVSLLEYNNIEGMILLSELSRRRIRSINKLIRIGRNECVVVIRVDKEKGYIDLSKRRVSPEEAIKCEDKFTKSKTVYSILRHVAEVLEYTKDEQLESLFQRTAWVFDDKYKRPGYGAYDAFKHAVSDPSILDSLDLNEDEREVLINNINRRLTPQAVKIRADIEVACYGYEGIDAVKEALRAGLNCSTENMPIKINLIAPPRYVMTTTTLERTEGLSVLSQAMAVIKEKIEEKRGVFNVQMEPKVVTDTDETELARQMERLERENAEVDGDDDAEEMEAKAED
UniProt P20042: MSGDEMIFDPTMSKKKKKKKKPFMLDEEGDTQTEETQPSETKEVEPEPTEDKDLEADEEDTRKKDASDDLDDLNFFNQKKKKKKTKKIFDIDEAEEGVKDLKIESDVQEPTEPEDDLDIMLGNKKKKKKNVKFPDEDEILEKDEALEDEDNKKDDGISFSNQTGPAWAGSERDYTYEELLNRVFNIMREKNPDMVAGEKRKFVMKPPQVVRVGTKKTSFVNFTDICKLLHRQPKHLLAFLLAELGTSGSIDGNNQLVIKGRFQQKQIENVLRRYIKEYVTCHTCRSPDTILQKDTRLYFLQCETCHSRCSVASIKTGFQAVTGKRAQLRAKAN
UniProt O15371: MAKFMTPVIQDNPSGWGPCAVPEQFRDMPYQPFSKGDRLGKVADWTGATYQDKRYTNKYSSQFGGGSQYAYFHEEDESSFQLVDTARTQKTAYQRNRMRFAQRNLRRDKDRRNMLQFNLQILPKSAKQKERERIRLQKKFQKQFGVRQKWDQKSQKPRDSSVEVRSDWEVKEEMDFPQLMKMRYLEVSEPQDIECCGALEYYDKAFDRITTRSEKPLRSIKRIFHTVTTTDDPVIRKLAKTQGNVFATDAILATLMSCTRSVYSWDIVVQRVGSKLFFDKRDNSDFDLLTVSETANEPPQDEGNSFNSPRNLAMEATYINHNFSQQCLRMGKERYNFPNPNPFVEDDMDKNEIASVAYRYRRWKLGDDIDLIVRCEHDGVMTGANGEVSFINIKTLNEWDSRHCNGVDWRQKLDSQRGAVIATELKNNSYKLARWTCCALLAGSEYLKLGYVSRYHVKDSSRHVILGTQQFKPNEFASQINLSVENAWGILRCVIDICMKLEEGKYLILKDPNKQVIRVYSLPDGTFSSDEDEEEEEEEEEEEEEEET
UniProt Q99613: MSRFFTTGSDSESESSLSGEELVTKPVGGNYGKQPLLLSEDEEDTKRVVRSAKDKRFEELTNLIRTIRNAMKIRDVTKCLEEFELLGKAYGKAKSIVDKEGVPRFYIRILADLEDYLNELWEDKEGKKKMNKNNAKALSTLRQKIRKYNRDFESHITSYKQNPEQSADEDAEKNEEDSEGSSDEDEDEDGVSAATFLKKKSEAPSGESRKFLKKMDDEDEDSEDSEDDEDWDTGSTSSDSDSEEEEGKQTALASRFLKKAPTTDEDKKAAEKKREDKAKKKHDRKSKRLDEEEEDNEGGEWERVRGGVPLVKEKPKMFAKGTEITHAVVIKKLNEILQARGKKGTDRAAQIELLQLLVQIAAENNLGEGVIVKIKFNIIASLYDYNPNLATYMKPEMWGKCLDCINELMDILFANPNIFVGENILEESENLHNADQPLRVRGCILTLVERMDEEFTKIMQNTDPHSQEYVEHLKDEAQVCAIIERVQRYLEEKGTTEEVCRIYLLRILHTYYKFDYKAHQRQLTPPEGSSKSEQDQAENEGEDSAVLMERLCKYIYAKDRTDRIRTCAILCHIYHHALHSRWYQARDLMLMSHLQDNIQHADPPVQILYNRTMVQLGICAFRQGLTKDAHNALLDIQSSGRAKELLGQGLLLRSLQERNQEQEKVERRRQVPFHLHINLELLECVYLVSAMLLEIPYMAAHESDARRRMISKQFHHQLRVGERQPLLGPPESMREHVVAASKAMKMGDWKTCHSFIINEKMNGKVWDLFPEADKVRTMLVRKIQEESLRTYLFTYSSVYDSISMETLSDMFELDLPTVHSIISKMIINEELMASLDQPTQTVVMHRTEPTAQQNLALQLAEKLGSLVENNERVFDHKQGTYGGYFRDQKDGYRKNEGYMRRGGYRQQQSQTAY

Columns and labels:
[1] = molecular target: 6XHis-eIF1A (Homo sapiens translation initiation factor 1A X-linked) (human) (UniProt P47813); test: pull-down; 6XHis-eIF1A on Ni-NTA agarose, HeLa cell extract; coprecipitated proteins detected by Western blot; also with 0.3, 1, 3 or 10 μM N40 random RNA or α-eIF1A aptamer RNA added; only the target purified
[2] = molecular target: 6XHis-eIF1A (Homo sapiens translation initiation factor 1A X-linked) (human) (UniProt P47813); test: pull-down; only the target purified

Substance | binding [1] | binding [2]
eIF2α (from UniProt P05198 1-315) | binds | 
eIF2β (from UniProt P20042 1-333) |  | binds
eIF3 p66 (from UniProt O15371 1-548) |  | binds
eIF3 p110 (from UniProt Q99613 1-913) | binds | 
